The other results are listed elsewhere or left out.
compound: COc1ccc(Cn2ccc3cc(C)c(C(=O)NO)cc32)cc1; experiment: dose-dependent thermal stabilisation call (2D-TPP, DLPTP, 10% FDR) (binary (1 = stabilised)); higher = stabilised by the compound; conditions: system: HL-60 intact cells; concentration range 0.04-10 µM
Procedure: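 2D thermal proteome profiling in intact HL-60 cells treated with BRD-3811 (0, 0.04, 0.29, 2, 10 uM) for 90 min at 37 C, then heated 3 min at one of 12 temperatures (42-63.9 C). Soluble protein was quantified by TMT10 MS. The value is the DLPTP call of the paper: dose-dependent thermal stabilisation over all temperatures at 10% FDR (F-test of a dose-response against a flat model); one experiment, one call per tested protein.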

Chains of the proteins cited; added tags and fusions are not shown. Lines headed by an entry give the natural chain unless they say otherwise; changes in a name come on top.
UniProt Q13542: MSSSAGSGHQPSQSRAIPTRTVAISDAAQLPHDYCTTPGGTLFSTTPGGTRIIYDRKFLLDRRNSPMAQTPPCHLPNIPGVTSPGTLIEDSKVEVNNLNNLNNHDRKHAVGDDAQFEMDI
UniProt Q9H9B1: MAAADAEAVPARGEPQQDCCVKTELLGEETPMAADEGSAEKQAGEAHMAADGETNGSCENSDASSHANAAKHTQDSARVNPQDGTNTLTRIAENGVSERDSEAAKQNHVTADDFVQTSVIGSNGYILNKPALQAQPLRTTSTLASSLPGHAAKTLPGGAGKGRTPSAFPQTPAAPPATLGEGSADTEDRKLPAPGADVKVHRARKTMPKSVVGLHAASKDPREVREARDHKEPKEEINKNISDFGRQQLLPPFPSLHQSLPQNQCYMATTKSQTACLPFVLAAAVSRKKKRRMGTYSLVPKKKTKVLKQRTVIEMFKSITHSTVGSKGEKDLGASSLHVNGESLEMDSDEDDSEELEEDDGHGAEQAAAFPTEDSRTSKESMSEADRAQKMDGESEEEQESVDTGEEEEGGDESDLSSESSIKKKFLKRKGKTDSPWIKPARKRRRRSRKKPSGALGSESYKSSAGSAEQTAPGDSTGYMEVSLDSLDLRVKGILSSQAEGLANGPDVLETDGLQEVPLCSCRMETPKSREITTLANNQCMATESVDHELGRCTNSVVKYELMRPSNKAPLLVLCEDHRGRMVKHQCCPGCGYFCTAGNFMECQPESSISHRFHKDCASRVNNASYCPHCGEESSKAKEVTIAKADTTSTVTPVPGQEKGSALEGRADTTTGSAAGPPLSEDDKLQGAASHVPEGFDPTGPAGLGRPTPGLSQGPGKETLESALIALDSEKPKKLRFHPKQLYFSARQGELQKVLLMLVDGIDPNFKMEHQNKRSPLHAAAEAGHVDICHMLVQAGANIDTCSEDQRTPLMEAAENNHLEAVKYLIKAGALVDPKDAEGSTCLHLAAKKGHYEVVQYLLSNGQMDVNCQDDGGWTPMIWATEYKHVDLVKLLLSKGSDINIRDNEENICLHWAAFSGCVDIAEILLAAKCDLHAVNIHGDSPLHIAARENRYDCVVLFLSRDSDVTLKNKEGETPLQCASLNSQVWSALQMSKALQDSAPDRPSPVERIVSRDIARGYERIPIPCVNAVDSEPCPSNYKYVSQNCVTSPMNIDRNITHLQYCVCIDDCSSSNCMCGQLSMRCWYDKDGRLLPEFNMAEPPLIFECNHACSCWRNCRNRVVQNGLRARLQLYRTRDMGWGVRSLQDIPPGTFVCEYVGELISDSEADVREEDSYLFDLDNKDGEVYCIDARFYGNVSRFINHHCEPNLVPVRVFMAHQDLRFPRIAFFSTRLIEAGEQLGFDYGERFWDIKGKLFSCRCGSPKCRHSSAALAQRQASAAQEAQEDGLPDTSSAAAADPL
UniProt Q01844: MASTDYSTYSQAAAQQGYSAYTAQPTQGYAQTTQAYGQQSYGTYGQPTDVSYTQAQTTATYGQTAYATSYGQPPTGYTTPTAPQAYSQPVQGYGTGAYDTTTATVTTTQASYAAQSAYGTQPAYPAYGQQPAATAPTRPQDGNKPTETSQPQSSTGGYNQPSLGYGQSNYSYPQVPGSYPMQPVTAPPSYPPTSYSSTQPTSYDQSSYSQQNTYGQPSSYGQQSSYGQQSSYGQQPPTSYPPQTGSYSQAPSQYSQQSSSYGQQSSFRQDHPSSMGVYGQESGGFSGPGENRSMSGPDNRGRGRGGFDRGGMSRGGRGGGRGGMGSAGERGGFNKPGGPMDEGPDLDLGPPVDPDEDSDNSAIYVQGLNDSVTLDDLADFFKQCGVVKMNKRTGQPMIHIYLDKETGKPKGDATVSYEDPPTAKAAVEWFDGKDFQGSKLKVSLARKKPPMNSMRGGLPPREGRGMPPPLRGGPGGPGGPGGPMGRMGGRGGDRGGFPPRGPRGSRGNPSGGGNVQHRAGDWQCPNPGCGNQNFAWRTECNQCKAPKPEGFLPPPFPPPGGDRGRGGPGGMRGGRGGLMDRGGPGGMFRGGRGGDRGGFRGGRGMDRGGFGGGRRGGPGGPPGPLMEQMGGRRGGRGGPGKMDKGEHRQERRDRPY
UniProt Q04637, whole entry: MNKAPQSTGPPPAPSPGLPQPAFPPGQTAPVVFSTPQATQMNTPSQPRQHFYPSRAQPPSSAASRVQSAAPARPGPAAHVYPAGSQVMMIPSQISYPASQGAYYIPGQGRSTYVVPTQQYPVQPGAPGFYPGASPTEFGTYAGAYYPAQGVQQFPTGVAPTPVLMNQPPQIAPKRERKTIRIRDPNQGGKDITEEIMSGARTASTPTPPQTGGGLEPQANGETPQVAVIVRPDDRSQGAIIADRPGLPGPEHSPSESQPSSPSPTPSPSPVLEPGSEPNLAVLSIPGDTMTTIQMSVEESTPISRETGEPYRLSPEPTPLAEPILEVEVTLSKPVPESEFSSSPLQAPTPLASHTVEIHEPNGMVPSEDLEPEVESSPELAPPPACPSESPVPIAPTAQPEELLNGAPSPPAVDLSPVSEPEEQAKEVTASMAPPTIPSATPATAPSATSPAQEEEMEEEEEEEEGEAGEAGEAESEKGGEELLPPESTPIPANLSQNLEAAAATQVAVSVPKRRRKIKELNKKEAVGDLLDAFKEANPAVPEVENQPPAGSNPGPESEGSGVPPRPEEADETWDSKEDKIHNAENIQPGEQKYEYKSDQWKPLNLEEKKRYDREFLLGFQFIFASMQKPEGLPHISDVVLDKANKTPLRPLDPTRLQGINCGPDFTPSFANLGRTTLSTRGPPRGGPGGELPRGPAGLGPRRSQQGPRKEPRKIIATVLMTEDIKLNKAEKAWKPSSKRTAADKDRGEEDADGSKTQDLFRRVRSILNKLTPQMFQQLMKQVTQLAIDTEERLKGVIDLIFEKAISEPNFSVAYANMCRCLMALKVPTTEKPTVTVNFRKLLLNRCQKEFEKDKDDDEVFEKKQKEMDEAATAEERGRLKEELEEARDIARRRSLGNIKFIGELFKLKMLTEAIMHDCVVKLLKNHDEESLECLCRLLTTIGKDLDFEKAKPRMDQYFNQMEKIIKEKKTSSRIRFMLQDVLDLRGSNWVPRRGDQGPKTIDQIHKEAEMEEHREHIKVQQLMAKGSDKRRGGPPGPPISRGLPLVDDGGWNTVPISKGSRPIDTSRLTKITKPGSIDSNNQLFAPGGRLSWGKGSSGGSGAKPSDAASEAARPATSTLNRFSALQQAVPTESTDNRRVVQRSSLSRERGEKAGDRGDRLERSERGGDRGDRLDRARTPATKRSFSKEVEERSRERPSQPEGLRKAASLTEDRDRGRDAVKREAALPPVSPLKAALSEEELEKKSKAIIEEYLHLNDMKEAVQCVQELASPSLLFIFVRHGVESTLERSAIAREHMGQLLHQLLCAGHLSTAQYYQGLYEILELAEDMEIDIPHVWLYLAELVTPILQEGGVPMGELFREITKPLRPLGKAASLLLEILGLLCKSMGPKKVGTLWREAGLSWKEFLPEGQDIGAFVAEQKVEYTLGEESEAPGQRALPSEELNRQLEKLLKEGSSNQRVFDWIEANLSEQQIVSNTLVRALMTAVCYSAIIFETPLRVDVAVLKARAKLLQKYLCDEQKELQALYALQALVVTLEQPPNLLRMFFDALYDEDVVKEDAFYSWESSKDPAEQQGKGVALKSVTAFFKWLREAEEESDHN
UniProt Q9H6L5: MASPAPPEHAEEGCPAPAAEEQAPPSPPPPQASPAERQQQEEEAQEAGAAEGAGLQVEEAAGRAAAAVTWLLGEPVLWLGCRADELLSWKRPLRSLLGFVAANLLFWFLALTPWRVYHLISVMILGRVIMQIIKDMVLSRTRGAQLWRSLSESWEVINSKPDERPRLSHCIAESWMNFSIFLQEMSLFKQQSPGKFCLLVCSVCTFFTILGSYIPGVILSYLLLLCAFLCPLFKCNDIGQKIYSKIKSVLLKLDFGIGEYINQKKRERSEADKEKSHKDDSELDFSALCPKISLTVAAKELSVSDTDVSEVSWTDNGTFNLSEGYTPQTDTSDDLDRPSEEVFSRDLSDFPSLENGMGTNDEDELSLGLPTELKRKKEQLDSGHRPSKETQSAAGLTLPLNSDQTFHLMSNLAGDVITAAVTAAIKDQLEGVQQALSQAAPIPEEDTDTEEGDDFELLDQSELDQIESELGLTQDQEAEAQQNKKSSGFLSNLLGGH
UniProt Q9NVH0: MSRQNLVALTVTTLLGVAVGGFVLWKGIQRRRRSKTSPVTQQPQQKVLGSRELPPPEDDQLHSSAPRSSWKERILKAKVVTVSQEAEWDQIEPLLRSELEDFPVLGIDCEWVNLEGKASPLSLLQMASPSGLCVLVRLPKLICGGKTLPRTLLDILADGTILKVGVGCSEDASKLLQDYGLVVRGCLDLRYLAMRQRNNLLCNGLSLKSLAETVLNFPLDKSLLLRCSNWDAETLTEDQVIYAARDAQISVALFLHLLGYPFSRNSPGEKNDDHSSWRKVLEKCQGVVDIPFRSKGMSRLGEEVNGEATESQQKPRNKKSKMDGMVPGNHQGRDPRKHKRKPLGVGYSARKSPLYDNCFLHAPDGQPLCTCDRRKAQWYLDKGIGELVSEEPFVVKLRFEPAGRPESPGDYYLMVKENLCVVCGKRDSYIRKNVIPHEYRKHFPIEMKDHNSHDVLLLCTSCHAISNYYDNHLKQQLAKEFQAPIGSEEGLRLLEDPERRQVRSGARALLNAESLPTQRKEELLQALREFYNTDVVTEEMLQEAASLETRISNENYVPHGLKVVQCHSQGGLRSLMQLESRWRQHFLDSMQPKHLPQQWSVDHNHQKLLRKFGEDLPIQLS
UniProt P06733, whole entry: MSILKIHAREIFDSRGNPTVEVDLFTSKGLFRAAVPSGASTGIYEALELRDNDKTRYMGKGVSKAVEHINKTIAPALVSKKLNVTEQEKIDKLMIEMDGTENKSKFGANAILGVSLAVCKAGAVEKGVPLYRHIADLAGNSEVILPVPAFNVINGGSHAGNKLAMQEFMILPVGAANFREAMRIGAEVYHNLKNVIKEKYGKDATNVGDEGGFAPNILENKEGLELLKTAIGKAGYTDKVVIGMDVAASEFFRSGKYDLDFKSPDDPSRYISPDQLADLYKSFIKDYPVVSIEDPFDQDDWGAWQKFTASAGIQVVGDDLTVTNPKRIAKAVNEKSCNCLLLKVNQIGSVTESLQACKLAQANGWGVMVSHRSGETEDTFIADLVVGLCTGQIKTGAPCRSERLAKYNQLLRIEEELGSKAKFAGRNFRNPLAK
UniProt Q9BVJ7: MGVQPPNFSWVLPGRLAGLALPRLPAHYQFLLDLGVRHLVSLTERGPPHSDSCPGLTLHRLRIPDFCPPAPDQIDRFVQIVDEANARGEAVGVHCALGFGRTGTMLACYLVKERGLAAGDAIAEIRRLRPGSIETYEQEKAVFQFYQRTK
UniProt Q9HC35: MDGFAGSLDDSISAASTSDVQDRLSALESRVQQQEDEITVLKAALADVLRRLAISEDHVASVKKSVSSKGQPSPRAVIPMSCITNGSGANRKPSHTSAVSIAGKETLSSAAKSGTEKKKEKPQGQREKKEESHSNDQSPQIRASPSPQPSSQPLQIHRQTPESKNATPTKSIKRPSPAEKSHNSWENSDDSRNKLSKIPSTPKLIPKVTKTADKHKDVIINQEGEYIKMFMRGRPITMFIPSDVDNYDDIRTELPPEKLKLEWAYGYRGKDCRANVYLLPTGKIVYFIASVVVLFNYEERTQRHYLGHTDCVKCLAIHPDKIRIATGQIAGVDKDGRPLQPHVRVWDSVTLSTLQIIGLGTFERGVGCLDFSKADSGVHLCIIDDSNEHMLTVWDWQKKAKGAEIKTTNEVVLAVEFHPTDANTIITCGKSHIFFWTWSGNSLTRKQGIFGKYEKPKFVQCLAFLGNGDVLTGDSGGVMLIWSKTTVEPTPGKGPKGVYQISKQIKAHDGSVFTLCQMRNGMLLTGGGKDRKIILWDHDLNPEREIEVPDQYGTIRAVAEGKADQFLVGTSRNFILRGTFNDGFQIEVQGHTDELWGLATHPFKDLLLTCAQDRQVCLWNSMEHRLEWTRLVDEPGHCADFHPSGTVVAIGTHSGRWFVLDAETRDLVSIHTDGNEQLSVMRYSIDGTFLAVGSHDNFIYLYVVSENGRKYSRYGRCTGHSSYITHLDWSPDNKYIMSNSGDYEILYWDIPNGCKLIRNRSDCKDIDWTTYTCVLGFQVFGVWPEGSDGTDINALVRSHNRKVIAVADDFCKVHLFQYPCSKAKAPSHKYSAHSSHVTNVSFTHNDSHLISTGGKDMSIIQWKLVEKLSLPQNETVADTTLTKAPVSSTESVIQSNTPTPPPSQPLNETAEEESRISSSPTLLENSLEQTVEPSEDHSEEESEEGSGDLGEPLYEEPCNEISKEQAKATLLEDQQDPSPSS

Target	dose-dependent thermal stabilisation call
EIF4EBP2 (UniProt Q13542)	inactive: 0
EHMT1 (UniProt Q9H9B1)	inactive: 0
EWSR1 (UniProt Q01844)	inactive: 0
EIF4G1 (UniProt Q04637)	inactive: 0
FAM134B (UniProt Q9H6L5)	inactive: 0
EXDL2 (UniProt Q9NVH0)	inactive: 0
ENO1 (UniProt P06733)	inactive: 0
DUSP23 (UniProt Q9BVJ7)	inactive: 0
EML4 (UniProt Q9HC35)	inactive: 0

From the supplement of paper PMC7666118
